Test results: article doi:10.1101/2024.08.31.610644
These are yes or no findings as the source states them, for the method shown. Binding can be weak; no strength is given. Where a sequence is shown, tags or fusion partners need not be part of it.

By UniProt entry, the sequences of proteins in these tests, tags left out. Where a name states a change or a piece, a line headed by the entry shows the natural chain unless it says otherwise.
UniProt Q94AI4: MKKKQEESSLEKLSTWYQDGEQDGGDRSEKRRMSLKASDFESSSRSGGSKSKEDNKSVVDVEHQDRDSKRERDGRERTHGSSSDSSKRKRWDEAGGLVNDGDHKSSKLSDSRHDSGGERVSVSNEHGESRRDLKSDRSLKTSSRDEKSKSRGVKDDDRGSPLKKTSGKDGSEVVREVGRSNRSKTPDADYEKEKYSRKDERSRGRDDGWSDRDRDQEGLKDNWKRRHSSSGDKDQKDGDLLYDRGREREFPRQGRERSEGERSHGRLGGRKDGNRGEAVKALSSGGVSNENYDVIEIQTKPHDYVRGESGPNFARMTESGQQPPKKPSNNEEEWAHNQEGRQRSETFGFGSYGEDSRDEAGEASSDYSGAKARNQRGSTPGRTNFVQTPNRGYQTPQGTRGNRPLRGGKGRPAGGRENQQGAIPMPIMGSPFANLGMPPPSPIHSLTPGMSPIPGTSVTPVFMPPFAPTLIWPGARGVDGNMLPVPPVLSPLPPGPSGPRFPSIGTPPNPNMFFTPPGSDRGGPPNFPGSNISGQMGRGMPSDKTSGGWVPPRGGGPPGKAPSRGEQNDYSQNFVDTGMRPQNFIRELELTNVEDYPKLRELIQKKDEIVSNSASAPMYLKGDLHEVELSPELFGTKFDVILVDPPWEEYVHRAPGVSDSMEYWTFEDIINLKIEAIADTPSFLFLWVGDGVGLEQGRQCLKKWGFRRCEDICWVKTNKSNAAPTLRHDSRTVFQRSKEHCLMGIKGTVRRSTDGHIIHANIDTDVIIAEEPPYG

Key:
Assay in all cases: two-hybrid
[1] = biological target: T1, C-terminal region (469 to 720 aa) of SE, yeast two-hybrid fusion (Arabidopsis thaliana) (UniProt Q9ZVD0)
T1 sequence: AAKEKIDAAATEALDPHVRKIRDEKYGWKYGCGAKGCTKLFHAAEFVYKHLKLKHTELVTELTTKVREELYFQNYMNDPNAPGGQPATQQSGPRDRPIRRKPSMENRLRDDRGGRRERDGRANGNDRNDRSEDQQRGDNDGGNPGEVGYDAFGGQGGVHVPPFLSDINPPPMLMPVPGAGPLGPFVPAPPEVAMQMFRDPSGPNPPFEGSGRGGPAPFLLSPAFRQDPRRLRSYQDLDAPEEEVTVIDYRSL

[2] = biological target: T2, 20S proteasome subunit PAG1, yeast two-hybrid fusion (Arabidopsis thaliana) (UniProt O23715)
T2 sequence: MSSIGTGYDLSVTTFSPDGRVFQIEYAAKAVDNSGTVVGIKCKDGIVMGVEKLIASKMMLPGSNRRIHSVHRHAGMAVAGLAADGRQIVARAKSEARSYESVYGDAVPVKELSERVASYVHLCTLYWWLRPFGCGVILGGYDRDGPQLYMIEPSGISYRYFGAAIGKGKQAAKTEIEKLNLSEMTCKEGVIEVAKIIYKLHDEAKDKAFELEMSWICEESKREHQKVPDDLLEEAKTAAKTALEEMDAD

[3] = biological target: T3, 20S proteasome subunit PBE1, yeast two-hybrid fusion (Arabidopsis thaliana) (UniProt O23717)
T3 sequence: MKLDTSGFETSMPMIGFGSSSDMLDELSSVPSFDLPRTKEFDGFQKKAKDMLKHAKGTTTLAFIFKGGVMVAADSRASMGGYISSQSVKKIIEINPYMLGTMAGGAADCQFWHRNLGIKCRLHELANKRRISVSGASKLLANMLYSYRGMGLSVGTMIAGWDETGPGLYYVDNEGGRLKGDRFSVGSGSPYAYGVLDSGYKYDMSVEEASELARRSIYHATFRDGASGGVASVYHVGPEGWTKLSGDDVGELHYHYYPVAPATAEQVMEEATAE

[4] = biological target: T4, 20S proteasome subunit PBE2, yeast two-hybrid fusion (Arabidopsis thaliana) (UniProt Q9LIP2)
T4 sequence: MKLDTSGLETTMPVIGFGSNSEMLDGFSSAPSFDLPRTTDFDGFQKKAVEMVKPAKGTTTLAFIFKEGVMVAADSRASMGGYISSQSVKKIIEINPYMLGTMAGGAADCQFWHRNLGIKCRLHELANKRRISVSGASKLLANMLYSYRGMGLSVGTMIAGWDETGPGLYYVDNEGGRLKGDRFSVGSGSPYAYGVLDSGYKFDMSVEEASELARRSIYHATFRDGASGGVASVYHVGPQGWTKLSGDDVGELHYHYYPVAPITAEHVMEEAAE

[5] = biological target: T5, SERRATE (SE), yeast two-hybrid fusion (Arabidopsis thaliana) (UniProt Q9ZVD0)
T5 sequence: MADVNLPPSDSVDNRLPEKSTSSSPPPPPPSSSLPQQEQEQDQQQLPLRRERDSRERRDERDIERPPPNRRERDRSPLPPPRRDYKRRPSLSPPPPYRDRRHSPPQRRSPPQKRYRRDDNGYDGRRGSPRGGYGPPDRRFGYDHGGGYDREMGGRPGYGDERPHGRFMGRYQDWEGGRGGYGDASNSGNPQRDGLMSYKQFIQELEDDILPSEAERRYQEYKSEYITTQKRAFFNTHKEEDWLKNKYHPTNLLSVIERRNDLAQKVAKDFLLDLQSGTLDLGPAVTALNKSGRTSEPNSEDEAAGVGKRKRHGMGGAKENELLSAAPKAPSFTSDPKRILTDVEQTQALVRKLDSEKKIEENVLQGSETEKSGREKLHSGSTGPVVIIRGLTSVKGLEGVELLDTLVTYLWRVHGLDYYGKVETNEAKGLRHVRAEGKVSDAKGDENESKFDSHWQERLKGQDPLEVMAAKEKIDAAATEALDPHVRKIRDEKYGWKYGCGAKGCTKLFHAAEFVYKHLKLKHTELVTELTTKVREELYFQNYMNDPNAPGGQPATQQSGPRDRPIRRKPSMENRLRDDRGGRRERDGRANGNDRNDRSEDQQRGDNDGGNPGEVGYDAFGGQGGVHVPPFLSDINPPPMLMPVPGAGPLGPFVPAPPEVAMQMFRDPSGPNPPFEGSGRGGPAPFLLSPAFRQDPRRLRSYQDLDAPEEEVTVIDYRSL

Substance	binding [1]	binding [2]	binding [3]	binding [4]	binding [5]
N-terminal IDR (1 to 634 aa) of MTB, yeast two-hybrid fusion (from UniProt Q94AI4) (domain or fragment)	binds				
MTC subunit B (MTB), yeast two-hybrid fusion (from UniProt Q94AI4-2)		binds	binds	binds	binds
